Results as given in patent US20190256585A1.
These are yes or no findings as the source states them, for the method shown. For part of these data: Binding seen in cells or lysates may run through a third protein. Some binding calls cover weakened binding; strength is not graded here.

By UniProt entry, the sequences of proteins in these tests, tags left out. Where a name states a change or a piece, a line headed by the entry shows the natural chain unless it says otherwise. Residues count along the entry.
UniProt P08670: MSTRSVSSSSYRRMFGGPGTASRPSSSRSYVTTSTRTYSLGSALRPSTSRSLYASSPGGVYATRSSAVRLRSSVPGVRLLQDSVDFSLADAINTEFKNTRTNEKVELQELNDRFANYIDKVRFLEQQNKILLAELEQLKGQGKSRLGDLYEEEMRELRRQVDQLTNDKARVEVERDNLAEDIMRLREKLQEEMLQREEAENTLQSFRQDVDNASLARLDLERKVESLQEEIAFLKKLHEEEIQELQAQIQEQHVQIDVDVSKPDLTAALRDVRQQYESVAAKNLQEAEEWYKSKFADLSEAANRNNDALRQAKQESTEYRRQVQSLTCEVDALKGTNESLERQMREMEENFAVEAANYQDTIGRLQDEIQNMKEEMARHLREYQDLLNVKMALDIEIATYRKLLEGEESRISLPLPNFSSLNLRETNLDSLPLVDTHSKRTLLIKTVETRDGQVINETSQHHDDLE
vimentin (wt) overexpressed in MCF-7 cells (stable cell line), infected with EMC-D virus: residues 2-466 of P08670

Assays:
[1] = target: vimentin (wt) overexpressed in MCF-7 cells (stable cell line), infected with EMC-D virus (UniProt P08670); assay: immunofluorescent staining of EMC-D-infected, fixed and permeabilized stable MCF-7 cells with hzVSF_var13 (1:250)
[2] = target: vimentin WT (wild-type) overexpressed in HEK293T cells (UniProt P08670); assay: immunoprecipitation from HEK293T lysate with hzVSF_var13 (1:100) and protein A beads, immunoblot
[3] = target: vimentin recombinant protein, wild-type, purified from E. coli (VR WT) (UniProt P08670); assay: protein A pull-down of E. coli-purified vimentin with hzVSF_var13 (2:1 molar ratio), SDS-PAGE and western blot

binding [1]: binds
binding [2]: binds
binding [3]: binds
B1: hzVSF_var13 (antibody, V domains shown)
VH: EVQLVQSGAEVKKPGASVKVSCKASGYTFTGYNMNWVRQAPGKGLEWMGNIDPYYGSDTYAQKFQGRVTMTVDKSISTAYMELSRLRSDDTAVYYCARETGTRAMDYWGQGTLVTVSS
VL: DIQMTQSPSSLSASVGDRVTITCRASENIYSNLAWYQQKPGKAPKLLIYVADNLADGVPSRFSGSGSGTDFTLTISSLQPEDFATYYCQHFYGSPRTFGGGTKVEIK
